From article PMC5147049
No constants are given. Whether binding was seen depends on the method and setting. Binding seen in cells or lysates may run through a third protein. Some results given as binding are weak or reduced against the parent protein; the word gives no strength.

Amino acid sequences for entries named in this document (tags omitted).
UniProt G3H1G2: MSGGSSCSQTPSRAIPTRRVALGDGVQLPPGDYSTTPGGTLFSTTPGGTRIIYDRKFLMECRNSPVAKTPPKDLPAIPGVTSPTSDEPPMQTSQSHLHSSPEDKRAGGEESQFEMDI

Target: eukaryotic translation initiation factor 4E (eIF4E), endogenous in GS-CHOK1 cells (Chinese hamster (endogenous in GS-CHOK1 cells))
Assay: pull-down; m7GTP-agarose beads (Jena Bioscience) incubated with fresh CHO cell extracts (Null8, CHO42, CHO52, CHO137; different days of batch culture) in 1% Triton X-100, 1 mM EDTA, 50 mM Tris-Cl, 0.1% beta-mercaptoethanol, protease/phosphatase inhibitors, 4°C, 2 h; washed three times with cold PBS; input and bound fractions analysed by SDS-PAGE and western blot

binding: binds
Substance: eukaryotic initiation factor 4E-binding protein 1 (4E-BP1), endogenous in GS-CHOK1 cells (from UniProt G3H1G2 1-117)
